Measured values: paper PMC9670795
Results are given in words; binding and its absence hold for the method and conditions named. In cells and extracts the contact can be indirect. Here binding means that the protein was enriched with, or labelled near, the bait; the list need not be complete. Where a sequence is shown, tags or fusion partners need not be part of it.

Chains of the proteins cited; added tags and fusions are not shown.
UniProt Q8IIS9: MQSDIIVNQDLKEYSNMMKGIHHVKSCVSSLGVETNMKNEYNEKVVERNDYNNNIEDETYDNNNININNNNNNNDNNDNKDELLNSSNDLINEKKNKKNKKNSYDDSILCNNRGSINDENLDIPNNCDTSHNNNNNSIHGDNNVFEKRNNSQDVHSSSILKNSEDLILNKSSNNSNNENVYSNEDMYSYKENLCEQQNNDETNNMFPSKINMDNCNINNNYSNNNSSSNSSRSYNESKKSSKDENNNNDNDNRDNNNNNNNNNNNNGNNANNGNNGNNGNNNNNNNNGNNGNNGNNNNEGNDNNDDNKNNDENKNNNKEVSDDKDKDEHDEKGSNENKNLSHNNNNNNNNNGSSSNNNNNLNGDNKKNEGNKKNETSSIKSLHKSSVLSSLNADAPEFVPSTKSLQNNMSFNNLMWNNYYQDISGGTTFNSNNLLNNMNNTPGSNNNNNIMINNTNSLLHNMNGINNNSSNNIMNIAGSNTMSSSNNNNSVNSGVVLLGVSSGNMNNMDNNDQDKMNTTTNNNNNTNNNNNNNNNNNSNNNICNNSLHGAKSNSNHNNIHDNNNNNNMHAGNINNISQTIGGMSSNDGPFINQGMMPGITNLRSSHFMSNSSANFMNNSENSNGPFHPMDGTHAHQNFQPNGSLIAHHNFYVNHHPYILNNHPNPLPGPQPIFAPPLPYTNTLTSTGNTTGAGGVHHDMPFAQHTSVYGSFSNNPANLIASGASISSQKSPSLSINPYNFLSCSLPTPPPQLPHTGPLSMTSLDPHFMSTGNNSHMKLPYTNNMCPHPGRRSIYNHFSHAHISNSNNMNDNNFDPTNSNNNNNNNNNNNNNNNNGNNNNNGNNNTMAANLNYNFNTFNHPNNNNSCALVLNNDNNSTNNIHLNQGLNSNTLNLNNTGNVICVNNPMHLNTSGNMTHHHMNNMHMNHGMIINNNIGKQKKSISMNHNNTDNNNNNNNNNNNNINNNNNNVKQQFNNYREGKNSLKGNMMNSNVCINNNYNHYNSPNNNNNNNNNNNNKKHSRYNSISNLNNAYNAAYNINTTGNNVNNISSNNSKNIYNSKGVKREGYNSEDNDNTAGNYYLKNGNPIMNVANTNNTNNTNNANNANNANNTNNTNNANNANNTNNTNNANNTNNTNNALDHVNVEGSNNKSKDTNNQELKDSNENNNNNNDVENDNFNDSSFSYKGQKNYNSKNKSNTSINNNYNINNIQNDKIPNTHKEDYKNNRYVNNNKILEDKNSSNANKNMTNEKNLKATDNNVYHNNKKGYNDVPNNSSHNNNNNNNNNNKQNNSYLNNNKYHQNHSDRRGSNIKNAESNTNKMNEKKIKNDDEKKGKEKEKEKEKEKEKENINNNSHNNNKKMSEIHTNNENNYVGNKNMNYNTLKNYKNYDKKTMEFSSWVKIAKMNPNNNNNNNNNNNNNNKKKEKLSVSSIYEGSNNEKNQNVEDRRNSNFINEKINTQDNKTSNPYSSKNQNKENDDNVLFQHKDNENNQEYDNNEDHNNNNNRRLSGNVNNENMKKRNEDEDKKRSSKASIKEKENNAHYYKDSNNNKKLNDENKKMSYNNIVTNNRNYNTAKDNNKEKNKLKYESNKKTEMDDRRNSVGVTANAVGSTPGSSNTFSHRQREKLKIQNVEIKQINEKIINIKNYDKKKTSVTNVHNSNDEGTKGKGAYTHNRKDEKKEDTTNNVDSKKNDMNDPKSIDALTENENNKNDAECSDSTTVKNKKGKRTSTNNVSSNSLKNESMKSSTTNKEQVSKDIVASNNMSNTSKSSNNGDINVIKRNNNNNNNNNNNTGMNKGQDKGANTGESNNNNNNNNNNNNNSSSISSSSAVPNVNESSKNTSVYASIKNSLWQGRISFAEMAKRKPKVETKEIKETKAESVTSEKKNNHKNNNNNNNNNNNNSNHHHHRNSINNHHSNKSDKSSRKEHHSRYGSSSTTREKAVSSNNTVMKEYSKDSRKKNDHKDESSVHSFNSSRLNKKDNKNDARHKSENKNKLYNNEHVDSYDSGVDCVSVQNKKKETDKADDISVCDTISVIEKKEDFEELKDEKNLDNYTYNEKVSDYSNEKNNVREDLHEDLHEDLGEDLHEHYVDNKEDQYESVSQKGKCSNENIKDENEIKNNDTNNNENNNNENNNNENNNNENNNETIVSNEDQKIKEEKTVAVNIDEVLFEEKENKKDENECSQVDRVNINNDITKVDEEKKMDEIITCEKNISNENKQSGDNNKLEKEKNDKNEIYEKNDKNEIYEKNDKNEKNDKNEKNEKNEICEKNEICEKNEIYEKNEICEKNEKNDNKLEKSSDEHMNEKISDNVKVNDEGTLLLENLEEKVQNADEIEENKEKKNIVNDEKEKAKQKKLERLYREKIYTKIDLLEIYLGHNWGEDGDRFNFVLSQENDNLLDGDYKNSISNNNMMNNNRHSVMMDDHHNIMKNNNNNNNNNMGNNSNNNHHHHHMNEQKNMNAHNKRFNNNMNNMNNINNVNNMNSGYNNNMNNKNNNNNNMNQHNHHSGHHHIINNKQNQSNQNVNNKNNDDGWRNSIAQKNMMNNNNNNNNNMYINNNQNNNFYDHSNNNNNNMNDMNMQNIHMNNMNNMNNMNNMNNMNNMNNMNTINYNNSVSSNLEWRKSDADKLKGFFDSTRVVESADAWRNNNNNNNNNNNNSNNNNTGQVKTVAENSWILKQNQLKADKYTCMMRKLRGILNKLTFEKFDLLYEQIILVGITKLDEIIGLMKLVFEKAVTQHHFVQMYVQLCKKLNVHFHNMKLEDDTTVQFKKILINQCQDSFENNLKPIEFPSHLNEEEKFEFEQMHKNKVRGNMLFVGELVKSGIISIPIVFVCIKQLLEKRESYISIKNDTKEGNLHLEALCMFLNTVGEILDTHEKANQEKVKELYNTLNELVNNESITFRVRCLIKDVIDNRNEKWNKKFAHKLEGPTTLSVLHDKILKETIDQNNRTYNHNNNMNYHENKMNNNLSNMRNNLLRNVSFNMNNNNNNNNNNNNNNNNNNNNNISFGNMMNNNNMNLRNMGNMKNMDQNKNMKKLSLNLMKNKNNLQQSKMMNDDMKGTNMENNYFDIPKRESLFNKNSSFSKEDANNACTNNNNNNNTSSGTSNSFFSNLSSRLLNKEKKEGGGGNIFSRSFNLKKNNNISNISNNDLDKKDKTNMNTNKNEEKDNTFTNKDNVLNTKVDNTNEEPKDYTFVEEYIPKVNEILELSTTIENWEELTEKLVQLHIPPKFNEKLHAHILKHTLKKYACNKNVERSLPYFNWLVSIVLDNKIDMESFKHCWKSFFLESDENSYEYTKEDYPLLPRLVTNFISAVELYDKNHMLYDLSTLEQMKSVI
UniProt Q8IJI4: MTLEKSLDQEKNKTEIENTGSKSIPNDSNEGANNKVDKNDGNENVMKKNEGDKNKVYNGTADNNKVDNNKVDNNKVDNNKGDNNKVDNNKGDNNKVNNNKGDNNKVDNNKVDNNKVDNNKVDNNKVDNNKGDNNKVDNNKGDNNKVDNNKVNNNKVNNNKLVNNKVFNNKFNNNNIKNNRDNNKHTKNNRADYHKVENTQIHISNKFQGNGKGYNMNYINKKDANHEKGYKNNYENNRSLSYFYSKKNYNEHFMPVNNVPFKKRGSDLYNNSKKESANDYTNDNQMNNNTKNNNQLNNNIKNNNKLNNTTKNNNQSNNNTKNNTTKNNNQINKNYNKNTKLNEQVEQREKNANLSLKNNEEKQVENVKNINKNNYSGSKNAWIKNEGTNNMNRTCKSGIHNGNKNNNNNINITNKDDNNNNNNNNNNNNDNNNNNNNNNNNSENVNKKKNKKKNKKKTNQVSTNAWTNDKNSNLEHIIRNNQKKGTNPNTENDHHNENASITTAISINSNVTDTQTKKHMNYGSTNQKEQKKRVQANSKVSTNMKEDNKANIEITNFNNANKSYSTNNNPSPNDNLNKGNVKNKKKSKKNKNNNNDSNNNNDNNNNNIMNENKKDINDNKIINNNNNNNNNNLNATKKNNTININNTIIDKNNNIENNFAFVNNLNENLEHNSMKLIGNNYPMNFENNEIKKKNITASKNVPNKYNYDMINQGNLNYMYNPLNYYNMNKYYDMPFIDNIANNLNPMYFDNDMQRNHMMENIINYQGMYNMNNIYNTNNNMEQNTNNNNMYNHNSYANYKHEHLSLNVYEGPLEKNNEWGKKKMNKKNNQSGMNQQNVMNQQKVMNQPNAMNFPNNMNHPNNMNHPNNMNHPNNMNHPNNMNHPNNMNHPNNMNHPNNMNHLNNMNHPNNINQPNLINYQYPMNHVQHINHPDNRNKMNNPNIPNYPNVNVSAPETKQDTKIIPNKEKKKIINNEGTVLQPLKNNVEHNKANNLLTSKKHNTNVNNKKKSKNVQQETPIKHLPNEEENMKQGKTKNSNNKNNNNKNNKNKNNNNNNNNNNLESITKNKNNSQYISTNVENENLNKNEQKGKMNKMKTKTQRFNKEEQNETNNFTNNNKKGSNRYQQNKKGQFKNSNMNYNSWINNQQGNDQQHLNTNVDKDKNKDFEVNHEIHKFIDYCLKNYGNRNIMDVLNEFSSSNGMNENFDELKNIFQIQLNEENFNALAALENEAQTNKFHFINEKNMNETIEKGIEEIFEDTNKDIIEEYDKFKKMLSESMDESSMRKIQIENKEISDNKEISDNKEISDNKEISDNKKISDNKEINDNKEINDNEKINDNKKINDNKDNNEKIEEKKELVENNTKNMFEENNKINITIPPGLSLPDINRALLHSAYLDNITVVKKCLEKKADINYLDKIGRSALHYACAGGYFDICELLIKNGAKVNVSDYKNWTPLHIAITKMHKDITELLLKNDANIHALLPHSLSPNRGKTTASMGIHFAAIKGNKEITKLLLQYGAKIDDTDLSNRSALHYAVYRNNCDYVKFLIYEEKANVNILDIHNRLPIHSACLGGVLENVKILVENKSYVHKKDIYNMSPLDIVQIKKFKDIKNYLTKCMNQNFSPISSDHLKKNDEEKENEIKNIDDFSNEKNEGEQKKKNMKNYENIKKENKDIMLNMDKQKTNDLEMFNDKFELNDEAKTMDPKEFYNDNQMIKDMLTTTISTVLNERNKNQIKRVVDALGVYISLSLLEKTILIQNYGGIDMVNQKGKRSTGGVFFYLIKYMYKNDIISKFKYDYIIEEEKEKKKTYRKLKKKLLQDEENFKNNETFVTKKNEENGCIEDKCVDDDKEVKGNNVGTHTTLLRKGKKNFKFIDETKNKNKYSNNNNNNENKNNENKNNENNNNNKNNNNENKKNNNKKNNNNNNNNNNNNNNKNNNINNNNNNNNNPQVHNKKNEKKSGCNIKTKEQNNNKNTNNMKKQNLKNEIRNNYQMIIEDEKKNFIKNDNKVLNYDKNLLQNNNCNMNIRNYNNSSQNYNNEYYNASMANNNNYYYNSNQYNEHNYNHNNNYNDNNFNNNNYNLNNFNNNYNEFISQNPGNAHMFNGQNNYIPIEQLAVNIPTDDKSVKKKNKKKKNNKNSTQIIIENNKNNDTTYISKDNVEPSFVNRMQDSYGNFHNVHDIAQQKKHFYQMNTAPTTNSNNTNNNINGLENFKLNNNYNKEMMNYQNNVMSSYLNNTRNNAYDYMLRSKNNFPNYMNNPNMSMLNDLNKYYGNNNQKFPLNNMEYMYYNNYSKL

T1: Pf-DDX5 (ATP-dependent RNA helicase DDX5, Pf3D7_1445900), tagged with 2xFKBP and GFP (P. falciparum 3D7) (UniProt Q8IL13)
T1 sequence: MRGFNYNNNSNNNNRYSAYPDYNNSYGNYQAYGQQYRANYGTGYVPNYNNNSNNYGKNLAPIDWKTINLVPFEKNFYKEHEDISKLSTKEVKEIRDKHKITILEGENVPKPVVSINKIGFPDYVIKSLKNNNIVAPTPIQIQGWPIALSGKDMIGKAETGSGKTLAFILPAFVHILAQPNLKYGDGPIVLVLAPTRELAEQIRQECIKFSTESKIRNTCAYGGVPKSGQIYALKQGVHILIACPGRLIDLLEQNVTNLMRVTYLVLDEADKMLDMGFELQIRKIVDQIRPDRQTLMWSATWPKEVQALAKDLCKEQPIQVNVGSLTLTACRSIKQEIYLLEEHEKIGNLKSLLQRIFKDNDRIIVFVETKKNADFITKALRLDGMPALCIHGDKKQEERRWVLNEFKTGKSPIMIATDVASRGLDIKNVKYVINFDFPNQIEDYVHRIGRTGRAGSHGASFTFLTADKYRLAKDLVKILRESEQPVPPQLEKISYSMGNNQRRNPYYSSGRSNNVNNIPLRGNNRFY


These molecules were tested against T1, Pf-DDX5 (ATP-dependent RNA helicase DDX5, Pf3D7_1445900), tagged with 2xFKBP and GFP (P. falciparum 3D7) (assay: affinity purification with mass spectrometry; GFP-Trap beads on nuclear extracts of 3% formaldehyde cross-linked parasites at 18 hpi; Benzonase in the lysis buffer; 150 mM NaCl, 4°C overnight; on-bead digestion, label-free quantitative LC-MS/MS against GFP-tagged Pf3D7_1423700 as control; n = 5).

| Molecule | binding |
| --- | --- |
| protein with unknown functions Pf3D7_0704300 (from UniProt A0A143ZVW7 1-1852) | binds |
| polyadenylate-binding protein (Pf3D7_1107300.1) (from UniProt Q8IIS9 1-3334) | binds |
| histone variant H2A.Z | binds |
| PHAX domain–containing protein Pf3D7_1021900 (from UniProt Q8IJI4 1-2290) | binds |

Biological target: T1, Pf-DDX5 (ATP-dependent RNA helicase DDX5, Pf3D7_1445900), tagged with 2xFKBP and GFP (P. falciparum 3D7)
Test: as above
Remark: another data set of the same source

| Molecule | binding |
| --- | --- |
| protein with unknown function Pf3D7_1455300.1 (protein, UniProt Q8IKS5 1-610) MDKCRNSSRKYKLSAGDSTFGKPTVRGSVTNDNLSDDGEIEFEGWVEFVTKNGNDDTNLSQEKKKRHGRNRNHTVSLCNIAKDDIVFNKSRKRDKQSRRDSKKGNEMNTDYMYSNNNNNIYANYVFKQPNEISNGSILYTLRNNNNNNNYNNNNNVVTPLYINNQTKTNDNLINILSPNYVDPAPPIVLKNQQVLPQLYIRQPPTVIVTNEPRPPLVINPPPANIIFKNKSPQPIYVNSTRPNIIIKNDPPVVQNPINMDTTPVQLDMPTENITINKETINYPYVMNIKKDSFLDNRNVYLKGSVSSTNASVSPTNVIYVESNNNNNNMNDINQQNIPNFYMMNNNQTPHLHQTTNAYATIPPINNHQIQTQPTNTVQYIQPNYEQVITQVDQNRNLFNQQLVGSTVMQNMTPQGVNTLNYPATINTVCVPQTISNTNNTTSQQVQYIPQTQAYAPYNNVQNTTIYERNYVPQIAQNTMTNNVVQQYVPSTTTMVQENVQNTPSSQYRILVPNNDNIQSPNIIRHYNNISNTKNNVNKAIVQPTYNSSEILPSCSPSGCASRNKVTHVQNVRRNSYINPHSHSMHECPKKVQIIARPMHDQNLRTYSLCR | binds |
| protein with unknown function Pf3D7_0819600.1 (protein, UniProt Q8IB31 1-277) MYVTTGTNDILLTINDYVNKETASYQLTDISNNTLISEIIEKIKVLKNYTYSSTDLVLYFARVECKLSEKLSTYNKSNRKTIKLELYLSKLITINVRTLQSCGTGTSRCIPFWSFCFRQNIKIKIIDTCEVRVLKQKIYNLTDESTSIPVENIVLLYKGAPLNNFLTLKESELIDNCRIDYFVPLCYIYKKKKEESDEDEDENEEKLKEHTKSEDKKVDTQQNENVKSENVNNENVKNENVNNENVKNENVNNENVNNENVNIENVKNDNNDNAKKC | binds |
| chromatin remodeling protein (Pf3D7_1104200.1) (protein, UniProt Q8IIW0 1-1426) MFRNVRDYFKSSNDVNEEKKNDVGSVHMDENTENYDKESNGFVHRDFNNGINKEDKDYEELDLKKLNVSSNDITKEGNNMNENMMNRKLNSSVEDGNDNNHDKNVHRNIGNDTHVSYDDKRKSYLDNNEENSEQMNDNMKKRKLNEISYDNNEEDEFRNKKDDSMEMNDKEKGSTNMSTINDNNNNHNDDSNNHNDDSNNHNDDSNNHNDDSNNHNDDNNNHNEDNNNHNDDNNNHNDDNNYNSEEKPNYLQEKLEQLLAQTKRYTEKLAGQRLKMNAQMKSSKKGRCLLTEKEEDFMLLKDANEEDEAIILKQPMNINGTMKPYQLEGLNWLYQLYRFKINGILADEMGLGKTLQTISLLCYLRFNKNIKKKSIIICPRSTLDNWYEEIKKWCTPMKAFKYYGNKDQRKELNRNLLHSDFDVLLTTYEIVIKDKSALYDIDWFFLVIDEAHRIKNEKSVLSSSVRFLRSENRLLITGTPLHNNLKELWSLLNFLMPKIFDNSEEFDNLFNISKISTNDNKQSEIITQLHTILKPFMLRRLKVEVEQSLPPKREIYIFVGMSKLQKKLYSDILSKNIDVLNAMTGSKNQMLNILMQLRKCCNHPYLFDGIEEPPYIEGNHLIETSGKMSLLDKLLPRLKKENSRVLLFSQMTRLLDIIDDYCRWKNYPYLRIDGSTPGDERQVRINQFNEPNSKYFIFLLSTRAGGIGINLTTADIVILFDSDYNPQMDIQAMDRAHRIGQKKRVIVYRFVTQNSVEEKIVERAAKKLKLDSLIIQKGKLNLNSAKENNKQELHDILNFGAPEVYKTQDISSISDEDIDIILADAEKRTIEIEKKLKNLENIFDLTNISLDGGLNMYNDLEKEASEESTDEEDSSGSGEETILEGSGNNDIVEENGVKKKKKKKKNINKIRRTIKKFLKNNKKNMTFLDLGERKSKWKVMNTACGRTNKKKMVLHGWRAEARGGHDFQFFNVEKLDELEKIEDKWNNYMINQEKINVLIEAQNEEKDYEKIVTFNEFLDKHAKNIYQIITLINPSLFDEHKDTKEEELLKMGTHSDVNSNDKDYKRSSFMSTDYNMKTTYLNNINSNNNNNNNNINDNVGTSINTIDDQQYFKKKILSLFESGKKLQMIKFKDRNIKNCYTQVANFIKKNFPEKINNNDTNNNKSTTLKNKKLKKGKQTKNVNVEKDIASVDIEKIKLQKQELMKQGFAKWNKAEFNKLMSGLIIYGTNEVEYIYEKYFSNSKKSMEDIKAYLTVFFRKYDQIKGGVRLFDKIKRSDLQKKIIEEENDMITEFVEKQLSEGVDSIEKLQLPSNLRYDFMEKREVLNITEEVKTENEENVLSNEELAYYDRENKILLWLLYQQGVVQIKNIHILTPYYWPEAYNFFKYATTPFENVEYRCRLIVDAIAELYAKKENVPLNNKDKRRI | binds |
| pre-mRNA–processing factor (Pf3D7_1110200.1) (protein, UniProt Q8IIR0 1-1329) MDLTSLKNEMTKNIKNDVFKNMSINNNKVKYEPFGKPPPGYIPGKGRGVTGFSGGVSRDDTTDDKDKNDYSDFNYDEFHGYSESLFKDTEYDEEDKEADEIYDKIDSLMDIRRKSRRENKLKEEISKMRATKPTITQQFGDLKKNLANVTIEEWESIPTVLQYSSKQKQKKVQKNYLPAPDSLIMSRINESNIHLNFNNSASSQSGHKTPIGLGYQSSLGVQTPLGLRTPYGLQNSLSGLKTPLSGLQNSLSGLKTPLSGLQNSLSGLKTPLSGLQNSLSGLKTPLSGLQTPYMRNPSSLFGMDTPLINNNIKSNMSISGLNTPFTLSGYNTPLSASNVSGYNTPLFNNTHKLSLNDLGEARGTVLSVKLDELIDNVEGQTVIDPKGYLTNLNASSLINDADIADINKARSLLKSVISTNPKHGPGWIAAARIEELAQRKDKAKEIIMKGCVVCSKNEDIWLEAVRLEEKLSEVKIILAKAIKHIPTSVKLWLEAYKKEKNVDDKRKVLRKAIECIPNSVKLWKEAISLENENNAYILLKRAVECIPQSIEMWIALARLCTYTEAQKVLNEARKKIPTSAEIWINASQLEEKQGNIKMVDIIIKRCIENLSSKNVIFDRDKWIKFAEECEQSKFTHTCESIIRNTMHIGVETLNKKRIYKQDAQNCIHNKSIHTARTLYNEALKIFKTKKSLWLALANLELTHGKREDVDEVLHRAVQSCPHSSVLWLMLAKQKWLNNEIDKAREILAESFIHNQNTEEISLAAIKLERENNEFDRARFLLKKSRVQCNTPKIWMQSVQLERLLRNYKEAKMLAHEALKIHKHFDKLYMIAGQIELEMYKYSNDTNININITSHKTYIKNGCDDTKSDDSKDKNINTKRTTSPKHYTTTNNNDDDANNDSSCTSNNFHNKQNGDNKNINVNNKKEEFINITNDPYKNAQNIYEEGLKYCASSINLWICAIDLQIEKKNYTGARALTEKAKIKIKYLNSFNNNSHILKSKEIIETNEQNYDTQDDEYNNLNKNMDGSKSVNNTTASNISKSKNELEKKSSVNNNAYIKIIENYDLLWLKLIEIELCCNNKNLNPIISEALKECPSSGILWSKAIELENKNLQNSKSVSAFNHCGNNAYVILTVAKLFWVNFKIQKARKWFYRVINLNPHFGDGWATFLAFEIDQQNEINQKDIINKCIKAEPNRGYLWNKITKRVENWRLKYPQKLYKYIKDIYPHVLNKKISDPIWNIITDENADTSFLLTNQENDKEKKDQGNESVDDEKDYEKETNNNVEEDPEKDSKEQGKRKSKEKILNEKDTTKNKRKDISTNEDEKDRKKKKK | binds |
| nucleosome assembly protein (Pf3D7_0919000) (protein, UniProt Q8I2W3 1-269) MKRDRSENSVENTDPKHTKIENDDPLMPFMQDFEDIQKDIEQLDIKCAHEQMNIQKQYDEKKKPLFEKRDEIIQKIPGFWANTLRKHPALSDIVPEDIDILNHLVKLDLKDNMDNNGSYKITFIFGEKAKEFMEPLTLVKHVTFDNNQEKVVECTRIKWKEGKNPIAAVTHNRSDLDNEIPKWSIFEWFTTDELQDKPDVGELIRREIWHNPLSYYLGLEEFDEFDDDFDEEFDDDDDDDDDDDDDDDDDDKDDDLDGDDDGNNDDNDD | binds |
